# Results taken from the supplement of paper PMC4604168 (melanoma cell lines).
# The list shows a part of the results. Repeats are few or missing, and single values can be far off.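 Cells were imaged in 1,536-well plates, and nuclei stained with an antibody against cleaved PARP were counted against all DNA-stained nuclei to give the apoptosis fraction. Screening doses were chosen to leave most cells alive, and resting and induced cleaved-PARP levels differ strongly between cell lines.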
# Experiments:
# Assay in all cases: cleaved PARP positive nuclei fraction relative to DMSO control; melanoma cells; higher = more apoptosis
# Conditions in all cases: library dose: low library concentration; 72 h
# [1] = test system: MZ2-MEL
# [2] = test system: MeWo
# [3] = test system: RPMI7951
# [4] = test system: RVH-421
# [5] = test system: SkMel28
# [6] = test system: SkMel30
# [7] = test system: SkMel5
# [8] = test system: UACC257
# [9] = test system: UACC62
# [10] = test system: WM115
# [11] = test system: WM1716
# [12] = test system: WM1745
# [13] = test system: WM3526
# [14] = test system: WM3619
# [15] = test system: WM451Lu
Compound,cleaved PARP positive nuclei fraction [1],cleaved PARP positive nuclei fraction [2],cleaved PARP positive nuclei fraction [3],cleaved PARP positive nuclei fraction [4],cleaved PARP positive nuclei fraction [5],cleaved PARP positive nuclei fraction [6],cleaved PARP positive nuclei fraction [7],cleaved PARP positive nuclei fraction [8],cleaved PARP positive nuclei fraction [9],cleaved PARP positive nuclei fraction [10],cleaved PARP positive nuclei fraction [11],cleaved PARP positive nuclei fraction [12],cleaved PARP positive nuclei fraction [13],cleaved PARP positive nuclei fraction [14],cleaved PARP positive nuclei fraction [15]
"Cc1ccc(NC(=O)c2cccc(N(C)C)c2)cc1NC(=O)c1ccc(O)cc1 + CCc1ccc(CCOc2ccc(CC3SC(=O)NC3=O)cc2)nc1 [pioglitazone] (first compound 2 µM, partner dose 2 µM)",160%,53.2%,171%,249%,214%,46.8%,49.5%,256%,82.8%,64.9%,94.9%,107%,58.6%,92.7%,67.2%
"OCCn1cc(-c2cnc3nnn(Cc4ccc5ncccc5c4)c3n2)cn1 + Oc1cc(-c2nc(-c3ccccc3)[nH]c2-c2ccncc2)ccc1Cl [L779450] (first compound 1 µM, partner dose 0.2 µM)",81.9%,99.8%,41.8%,86.3%,66.6%,160%,69%,109%,86.1%,46.9%,82%,106%,76.1%,118%,224%
"Cc1ccc(NC(=O)c2cccc(N(C)C)c2)cc1NC(=O)c1ccc(O)cc1 + COc1ccc2c(c1)CCC1C2CCC2(C)C(NCCCCCCN3C(=O)C=CC3=O)CCC12 [U73122] (first compound 2 µM, partner dose 0.4 µM)",103%,51.6%,101%,54.3%,120%,93.2%,122%,127%,49.1%,228%,73.5%,110%,98.5%,90.4%,140%
"C#Cc1cccc(Nc2ncnc3cc(OCCOC)c(OCCOC)cc23)c1 [erlotinib] + O=S(=O)(c1ccccc1)N(CC(F)(F)F)c1ccc(C(O)(C(F)(F)F)C(F)(F)F)cc1 [T0901317] (first compound 0.8 µM, partner dose 1.4 µM)",51.6%,27.4%,83.7%,177%,191%,30.4%,68.6%,193%,81.8%,195%,92.1%,468%,76.3%,68.9%,89.1%
"Cn1cncc1[C@@](N)(c1ccc(Cl)cc1)c1ccc2c(c1)c(-c1cccc(Cl)c1)cc(=O)n2C [tipifarnib] + O=C(Nc1ccccc1)c1cc([N+](=O)[O-])ccc1Cl [GW9662] (first compound 0.01 µM, partner dose 2 µM)",18.9%,258%,182%,197%,85.8%,130%,52.8%,107%,91.6%,72.5%,111%,81.1%,75.7%,107%,53.7%
"O=C(Nc1cccc(Cl)c1)Nc1ncc(CCNc2ncnc3ccsc23)s1 + COC(=O)c1sccc1S(=O)(=O)Nc1ccc(Nc2ccccc2)cc1OC [GSK0660] (first compound 0.0008 µM, partner dose 1 µM)",93.1%,226%,79.6%,93%,81.2%,33.3%,76.6%,86.7%,58.7%,84%,95.1%,103%,70.6%,87.1%,64.6%
"O=C(Nc1cccc(Cl)c1)Nc1ncc(CCNc2ncnc3ccsc23)s1 + c1cc(-c2cnn3cc(-c4ccc(OCCN5CCCCC5)cc4)cnc23)ccn1 [Dorsomorphin] (first compound 0.0008 µM, partner dose 0.4 µM)",29.1%,148%,83.5%,71.3%,78.2%,13.4%,30.9%,127%,129%,40.1%,80.3%,107%,133%,84.3%,38.9%
"Cc1ccc(NC(=O)c2cccc(N(C)C)c2)cc1NC(=O)c1ccc(O)cc1 + COc1ccc(COc2ccc(Cc3cnc(N)nc3N)cc2OC)cc1 [GW2580] (first compound 2 µM, partner dose 1 µM)",116%,101%,42.8%,62.4%,87.3%,14.5%,207%,120%,79.7%,38.1%,79.5%,117%,34.5%,68.1%,57.2%
"COc1cc(Nc2ncc(F)c(Nc3ccc4c(n3)NC(=O)C(C)(C)O4)n2)cc(OC)c1OC [Tamatinib] + COC(=O)c1sccc1S(=O)(=O)Nc1ccc(Nc2ccccc2)cc1OC [GSK0660] (first compound 0.4 µM, partner dose 1 µM)",171%,38.9%,109%,64.7%,153%,60.8%,43.6%,318%,101%,38.6%,118%,146%,66.5%,86.7%,65.8%
"Cc1nc(Nc2ncc(C(=O)Nc3c(C)cccc3Cl)s2)cc(N2CCN(CCO)CC2)n1 [dasatanib] + O=S(=O)(c1ccccc1)N(CC(F)(F)F)c1ccc(C(O)(C(F)(F)F)C(F)(F)F)cc1 [T0901317] (first compound 0.004 µM, partner dose 1.4 µM)",51.4%,82.5%,182%,106%,186%,59.2%,30.8%,222%,71.9%,248%,106%,189%,116%,87%,149%
